Source: article doi:10.1101/2024.12.12.628173
No constants are given. Whether binding was seen depends on the method and setting. Binding seen in cells or lysates may run through a third protein. Some binding calls cover weakened binding; strength is not graded here.

Sequences of proteins named here, by UniProt entry; tags and fusion partners are left off. A change or cut given only in a name is not applied to a line headed by its entry. Residues count along the entry.
UniProt Q9UBI1, residues 1-124: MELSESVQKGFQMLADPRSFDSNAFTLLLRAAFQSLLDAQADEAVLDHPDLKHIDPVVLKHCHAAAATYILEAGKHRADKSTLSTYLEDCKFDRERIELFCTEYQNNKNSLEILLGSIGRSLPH
UniProt P84077: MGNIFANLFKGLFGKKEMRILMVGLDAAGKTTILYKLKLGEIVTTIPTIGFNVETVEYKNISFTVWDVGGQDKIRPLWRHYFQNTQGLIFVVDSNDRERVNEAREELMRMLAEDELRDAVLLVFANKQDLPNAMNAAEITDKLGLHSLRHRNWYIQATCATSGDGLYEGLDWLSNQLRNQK

Target: 3xFLAG-tagged COMMD3-NTD (human) (UniProt Q9UBI1)
Assay: co-IP; HA-tagged ARF1 Q71L and 3xFLAG-tagged COMMD3-NTD co-expressed in 293T cells; immunoprecipitation with anti-FLAG antibodies, detection by immunoblotting

HA-tagged ARF1 Q71L (from UniProt P84077 1-181)
binding: binds
